Results deposited as PubChem BioAssay AID504808 (Drosophila RNAi Screening Center, 2011)

Purpose: 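Chromatin factors that keep E2F targets switched off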 (primary screen)
Cell system: Drosophila S2 cells
Reagents: long dsRNA against Drosophila genes
Read-out: 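Firefly luciferase driven by E2F sites, normalised to Renilla luciferase on the same minimal promoter, measured by plate reader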
Reading the numbers: E2F firefly: higher = more E2F reporter activity; Renilla normaliser: higher = more normaliser reporter signal
Hit rule: 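a knock-down counted as active when the firefly/Renilla E2F signal rose above 50%, a threshold chosen arbitrarily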
The deposit covers about 21,000 reagents; this is a random part of those with a known target gene and a result. Of all reagents, 18 (0.084%) were called active. 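Raw counts without plate normalisation, one of two replicates; the ratio scores behind the calls were not deposited.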 No sequences are given here. Not stated in the record: the amount of reagent, the time to read-out.

Against chp [DRSC16925], the entry reads E2F firefly, rep 1 = 1985; Renilla normaliser, rep 1 = 924; inactive. With knock-down of Acp32CD [DRSC01858] the results were E2F firefly, rep 1 = 1.64e5; Renilla normaliser, rep 1 = 5547; inactive. With knock-down of CG31178 [DRSC14590], the screen gave E2F firefly, rep 1 = 1.54e5; Renilla normaliser, rep 1 = 7064; inactive. Knock-down of fd102C [DRSC17203] resulted in: E2F firefly, rep 1 = 1.12e5; Renilla normaliser, rep 1 = 5018; inactive. Depletion of stretch (retired record) [DRSC14347] came out at: E2F firefly, rep 1 = 1.00e5; Renilla normaliser, rep 1 = 4238; inactive. stretch (retired record) [DRSC14512] gave E2F firefly, rep 1 = 1.32e5; Renilla normaliser, rep 1 = 6052; inactive.

Knock-down of stretch (retired record) [DRSC14541] gave: E2F firefly, rep 1 = 1.40e5; Renilla normaliser, rep 1 = 5977; inactive. Knock-down of stretch (retired record) [DRSC14542] came out at: E2F firefly, rep 1 = 1.44e5; Renilla normaliser, rep 1 = 6080; inactive. For stretch (retired record) [DRSC14543], the values are E2F firefly, rep 1 = 1.32e5; Renilla normaliser, rep 1 = 6005; inactive. After knock-down of f-cup [DRSC14139], the screen gave E2F firefly, rep 1 = 87353; Renilla normaliser, rep 1 = 3761; inactive. For scyl [DRSC11392], the entry reads E2F firefly, rep 1 = 1.54e5; Renilla normaliser, rep 1 = 7678; inactive. For CG12824 [DRSC06173], the entry reads E2F firefly, rep 1 = 1.48e5; Renilla normaliser, rep 1 = 4491; inactive.

Depletion of CG8303 [DRSC07140] resulted in: E2F firefly, rep 1 = 1.40e5; Renilla normaliser, rep 1 = 4428; inactive. With knock-down of CG14655 [DRSC12241], the record shows E2F firefly, rep 1 = 54325; Renilla normaliser, rep 1 = 3990; inactive. Against sNPF-R [DRSC10836] the deposit lists E2F firefly, rep 1 = 1.28e5; Renilla normaliser, rep 1 = 5968; inactive.

Records listed so far whose target name begins with S or s (7):
stretch (retired record) [DRSC14347] | E2F firefly, rep 1: 1.00e5; Renilla normaliser, rep 1: 4238; Call: inactive
stretch (retired record) [DRSC14512] | E2F firefly, rep 1: 1.32e5; Renilla normaliser, rep 1: 6052; Call: inactive
stretch (retired record) [DRSC14541] | E2F firefly, rep 1: 1.40e5; Renilla normaliser, rep 1: 5977; Call: inactive
stretch (retired record) [DRSC14542] | E2F firefly, rep 1: 1.44e5; Renilla normaliser, rep 1: 6080; Call: inactive
stretch (retired record) [DRSC14543] | E2F firefly, rep 1: 1.32e5; Renilla normaliser, rep 1: 6005; Call: inactive
scyl [DRSC11392] | E2F firefly, rep 1: 1.54e5; Renilla normaliser, rep 1: 7678; Call: inactive
sNPF-R [DRSC10836] | E2F firefly, rep 1: 1.28e5; Renilla normaliser, rep 1: 5968; Call: inactive

The results go on:
With knock-down of CG15916 [DRSC19740] the results were E2F firefly, rep 1 = 1.57e5; Renilla normaliser, rep 1 = 6503; inactive. After knock-down of lz [DRSC18790], the screen gave E2F firefly, rep 1 = 1.21e5; Renilla normaliser, rep 1 = 5977; inactive. Against kairos [DRSC19972], the values are E2F firefly, rep 1 = 1.68e5; Renilla normaliser, rep 1 = 5488; inactive. For Vap33 [DRSC18384], the values are E2F firefly, rep 1 = 1914; Renilla normaliser, rep 1 = 892; inactive. Knock-down of Orai [DRSC05684] came out at: E2F firefly, rep 1 = 1.66e5; Renilla normaliser, rep 1 = 5388; inactive. With knock-down of CG14561 [DRSC11722] the results were E2F firefly, rep 1 = 1.47e5; Renilla normaliser, rep 1 = 6910; inactive.

Against edl [DRSC06516], the entry reads E2F firefly, rep 1 = 72726; Renilla normaliser, rep 1 = 3422; inactive. After knock-down of CG9400 [DRSC20182], the screen gave E2F firefly, rep 1 = 7904; Renilla normaliser, rep 1 = 752; inactive. Silencing of Prim1 [DRSC11137] resulted in: E2F firefly, rep 1 = 97155; Renilla normaliser, rep 1 = 3695; inactive. Silencing of Serinc [DRSC11296] came out at: E2F firefly, rep 1 = 79960; Renilla normaliser, rep 1 = 3964; inactive. With knock-down of CG9636 [DRSC16529], the screen gave E2F firefly, rep 1 = 78233; Renilla normaliser, rep 1 = 3859; inactive. Against Pal2 [DRSC04507] the deposit lists E2F firefly, rep 1 = 1.02e5; Renilla normaliser, rep 1 = 4462; inactive.

CG31974 [DRSC00522] showed E2F firefly, rep 1 = 1.34e5; Renilla normaliser, rep 1 = 5526; inactive.
